Source: the supplement of paper PMC4604168 (melanoma cell lines)
The list shows a part of the results. Single values are uncertain, as repeats are few or missing.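 Imaging used 1,536-well plates; nuclei positive for cleaved PARP by antibody were divided by total DNA-stained nuclei to yield the apoptosis fraction. Doses for screening kept most cells viable, and cell lines differ markedly in resting and induced cleaved-PARP levels.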

Assays:
Assay in all cases: cleaved PARP positive nuclei fraction relative to DMSO control; melanoma cells; higher = more apoptosis
Details in all cases: library dose: low library concentration; 72 h
[1] = test system: CBRC034 (line from a melanoma biopsy)
[2] = test system: COLO792
[3] = test system: COLO800
[4] = test system: COLO829
[5] = test system: G361
[6] = test system: IPC-298
[7] = test system: IST-MEL1
[8] = test system: LB2518-MEL
[9] = test system: LOXIMVI
[10] = test system: MEL-HO

Row | SMILES | cleaved PARP positive nuclei fraction [1] [%] | cleaved PARP positive nuclei fraction [2] [%] | cleaved PARP positive nuclei fraction [3] [%] | cleaved PARP positive nuclei fraction [4] [%] | cleaved PARP positive nuclei fraction [5] [%] | cleaved PARP positive nuclei fraction [6] [%] | cleaved PARP positive nuclei fraction [7] [%] | cleaved PARP positive nuclei fraction [8] [%] | cleaved PARP positive nuclei fraction [9] [%] | cleaved PARP positive nuclei fraction [10] [%]
1 | Cn1cnc2c(F)c(Nc3ccc(Br)cc3Cl)c(C(=O)NOCCO)cc21 [selumetinib] + Clc1ccc(Nc2nnc(Cc3ccncc3)c3ccccc23)cc1 [vatalanib] (first compound 0.015 µM, partner dose 2 µM) | 329 | 78 | 90 | 79.2 | 119 | 124 | 173 | 164 | 61.5 | 141
2 | C[C@]1(O)C[C@@H](c2nc(-c3ccc4ccc(-c5ccccc5)nc4c3)c3c(N)nccn32)C1 + COc1ccc(Cl)c(Nc2nc3ccccc3nc2NS(=O)(=O)c2cccc(NC(=O)C(C)(C)N)c2)c1 [XL147] (first compound 0.4 µM, partner dose 0.8 µM) | 79.3 | 57.2 | 128 | 117 | 73.9 | 43.4 | 134 | 96.1 | 105 | 207
3 | Cn1sc(=O)n(Cc2ccccc2)c1=O + Cn1c(=O)n(-c2ccc(C(C)(C)C#N)cc2)c2c3cc(-c4cnc5ccccc5c4)ccc3ncc21 [NVP-BEZ235] (first compound 0.4 µM, partner dose 0.004 µM) | 29.8 | 66.9 | 128 | 27.4 | 165 | 179 | 45.8 | 109 | 73.5 | 178
4 | Cn1cnc2c(F)c(Nc3ccc(Br)cc3Cl)c(C(=O)NOCCO)cc21 [selumetinib] + OCc1c[nH]c2ccccc12 [Indole-3-carbinol] (first compound 0.015 µM, partner dose 0.8 µM) | 292 | 117 | 157 | 68.3 | 122 | 197 | 67.4 | 110 | 34.2 | 141
5 | NC(=O)c1ccc(N(C(N)=O)c2c(F)cccc2F)nc1-c1ccc(F)cc1F + CS(=O)(=O)CCNCc1ccc(-c2ccc3ncnc(Nc4ccc(OCc5cccc(F)c5)c(Cl)c4)c3c2)o1 [lapatinib] (first compound 0.4 µM, partner dose 0.8 µM) | 81.5 | 148 | 110 | 115 | 77.5 | 42.2 | 61.2 | 84.5 | 144 | 151
6 | C[C@]1(O)C[C@@H](c2nc(-c3ccc4ccc(-c5ccccc5)nc4c3)c3c(N)nccn32)C1 + CN(c1ncccc1CNc1nc(Nc2ccc3c(c2)CC(=O)N3)ncc1C(F)(F)F)S(C)(=O)=O [PF562271] (first compound 0.4 µM, partner dose 0.08 µM) | 85.3 | 104 | 167 | 68.4 | 126 | 92.8 | 132 | 151 | 306 | 112
7 | CN(c1ncccc1CNc1nc(Nc2ccc3c(c2)CC(=O)N3)ncc1C(F)(F)F)S(C)(=O)=O + CC(C)C[C@H](NC(=O)[C@H](Cc1ccccc1)NC(=O)c1cnccn1)B(O)O [Bortezomib] (first compound 0.08 µM, partner dose 0.001 µM) | 596 | 69.8 | 130 | 270 | 1050 | 107 | 86.9 | 209 | 199 | 59.9
8 | Cn1cnc2c(F)c(Nc3ccc(Br)cc3Cl)c(C(=O)NOCCO)cc21 [selumetinib] + NC1(c2ccc(-c3nc4ccn5c(=O)[nH]nc5c4cc3-c3ccccc3)cc2)CCC1 [MK2206] (first compound 0.015 µM, partner dose 0.4 µM) | 187 | 205 | 137 | 136 | 246 | 740 | 76.8 | 599 | 157 | 37.8
9 | CC1(C)CCC(c2ccc(Cl)cc2)=C(CN2CCN(c3ccc(C(=O)NS(=O)(=O)c4ccc(N[C@H](CCN5CCOCC5)CSc5ccccc5)c(S(=O)(=O)C(F)(F)F)c4)cc3)CC2)C1 + CO[C@H]1C[C@@H]2CC[C@@H](C)[C@@](O)(O2)C(=O)C(=O)N2CCCC[C@H]2C(=O)O[C@H]([C@H](C)C[C@@H]2CC[C@@H](OCCO)[C@H](OC)C2)CC(=O)[C@H](C)/C=C(\C)[C@@H](O)[C@@H](OC)C(=O)[C@H](C)C[C@H](C)/C=C/C=C/C=C/1C [everolimus] (first compound 0.4 µM, partner dose 0.02 µM) | 47.6 | 464 | 208 | 181 | 467 | 164 | 236 | 363 | 962 | 181

Some values from the results shown.
For cleaved PARP positive nuclei fraction [6] [%], CN(c1ncccc1CNc1nc(Nc2ccc3c(c2)CC(=O)N3)ncc1C(F)(F)F)S(C)(=O)=O + CC(C)C[C@H](NC(=O)[C@H](Cc1ccccc1)NC(=O)c1cnccn1)B(O)O [Bortezomib] (first compound 0.08 µM, partner dose 0.001 µM) is listed with 107
For cleaved PARP positive nuclei fraction [9] [%], Cn1cnc2c(F)c(Nc3ccc(Br)cc3Cl)c(C(=O)NOCCO)cc21 [selumetinib] + Clc1ccc(Nc2nnc(Cc3ccncc3)c3ccccc23)cc1 [vatalanib] (first compound 0.015 µM, partner dose 2 µM) is listed with 61.5
